Measured values taken from patent publication US10258664B2, “Methods and compositions for treating pain” (MannKind Corporation, priority 2011, dated 2019).
Not every detail of the peptide structures is certain; ends, links or a residue may be inferred.

Tests used:
[1] = tested on: mice; experiment: 55° C. warm-water tail withdrawal (tail-flick) assay; assay type: in vivo, mouse
Method: Antinociceptive effect was tested in a mouse tail-withdrawal (“tail-flick,” Aldrich et al. 2009) assay in which the tail of a restrained mouse is exposed to water at 55° C. […] Durations shorter than the maximum are reported as a percentage of the time limit. This tail-flick test (also known as the 55° C. warm-water tail withdrawal assay) is an industry acceptable, nonclinical model for assessing the efficacy of analgesics in treating acute pain. To test placebo effect, FDKP (TECHNOSPHERE®) powder (0.5 mg) without any peptide was used in the study. Each animal is tested for baseline tail-withdrawal latency prior to drug administration. Latency to withdraw the tail was subsequently measured in 10 minutes post-drug administration intervals as indicated. A maximum response time of 15 seconds was utilized to prevent tissue damage. Data reported as percent antinociception, as calculated by the following equation: % antinociception is equal to 100 times (test latency minus baseline latency) divided by (15 minus baseline latency).
The tetrapetide, (D)Phe-(D)Phe-(D)Nle-(D)Arg-NH2 (SEQ ID NO: 2, Compound 2) was administered to mice by intraperitoneal (i.p.) injection (3 mg/kg) in a saline solution, and by pulmonary insufflation of a dry powder formulation containing FDKP at various doses, 0.25 mg, 0.125 mg, 0.013 mg, 1.25 μg and 0.13 μg. The tail-flick test was performed for a period of time after administration. […]

[2] = tested on: patient; experiment: Patient examples: inhaled analgesic composition, patient-reported pain; assay type: in vivo, human; conditions: FDKP composition, 15% peptide, inhaled 5 mg/kg; person undergoing chemotherapy
Method: patient one reports headache pain to their doctor. […] The analgesic composition is 15% peptide. The analgesic composition is administered with a reusable inhaler calibrated to provide a dose of 5 mg/kg of body weight.
A patient undergoing chemotherapy reports stomach pain to their doctor. […] The analgesic composition is 15% peptide. The analgesic composition is administered with a reusable inhaler calibrated to provide a dose of 5 mg/kg of body weight.
(§1) A patient reports back pain to their doctor. Following examination of the patient, the doctor prescribes an analgesic composition containing a FDKP/Trp-(D)Pro-Ser-Phe-NH2 (SEQ ID NO: 3, Compound 3), composition prepared as described in the previous Examples. The analgesic composition is 15% peptide. The analgesic composition is administered with a reusable inhaler calibrated to provide a dose of 4 mg/kg of body weight.
as §1, with “dental” for “back”, “an Na2FDKP/Ac-His-(D)Phe-Arg-(D)Trp-Gly-NH2” for “a FDKP/Trp-(D)Pro-Ser-Phe-NH2”, “6,” for “3,”, “6)” for “3),”, “10%” for “15%”, “7” for “4”
A patient reports pain due to multiple sclerosis to their doctor. […]

With `CC[C@@H](C)[C@@H](NC(=O)[C@@H](Cc1ccccc1)NC(=O)[C@H](N)Cc1ccccc1)C(=O)N[C@H](CCCNC(=N)N)C(N)=O` [Compound 1, (D)Phe-(D)Phe-(D)Ile-(D)Arg-NH2] the “duration and onset of antinociceptive effect” value ([1]; i.p. injection 1 mg/kg in saline, FIG. 2) was “longest duration of effect, but did not have the same rapid onset as the insufflated doses”, the “antinociceptive effect at lower doses” value ([1]; insufflated 0.5 mg powder, lower peptide contents (2.5%, 0.25%, 0.025%), FIG. 2) was “not saturated but showed a dose response” and the “antinociceptive effect (onset)” value ([1]; insufflated Na2FDKP powder 0.5 mg, peptide content 25% to 0.025%, FIG. 2) was “rapid antinociceptive effect”. For the same compound, the “plateau of antinociceptive effect” value ([1]; insufflated, highest dose (25% peptide in 0.5 mg powder), FIG. 2) was “approximately 40 minutes”, the “duration of action on pain” value ([1]; powder insufflated at 5 mg/kg compared with morphine sulfate, FIG. 3) was “similar” and the “speed of inhibition of nociception” value ([1]; powder insufflated at 5 mg/kg vs i.p. morphine 10 mg/kg, two hours, FIG. 3) was “inhibits nociception faster than injected morphine”. For the same compound, the patient-reported stomach pain [2] was “elimination of their stomach pain”.
